# PubChem BioAssay AID504834 (National Center for Advancing Translational Sciences (NCATS), 2011)
# Several values for one entry are separate records, joined by “and”; a condition that tells them apart may be missing. Equal values may be shown once. The whole screen tested about 320,000 compounds, of which about 22,000 (6.9%) were called active. The inconclusive results got no clear call from the source; some entries with a clear call stand among them for comparison. Calls come from the whole dose curve; as a rule, active = well fitted inhibition curve with a large enough effect; inconclusive = small, poorly fitted or top-dose-only effect, or another doubt; inactive = no such curve, though single readings can be large or run the other way. A potency beside an inconclusive call is a rough fit, not a confirmed value.
# Experiment: Primary qHTS for delayed death inhibitors of the malarial parasite plastid, 96 hour incubation
# Settings: P. falciparum luciferase reporter growth; series mostly up to 28.7 µM
# Method in brief: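 Parasite growth measured via integrated firefly luciferase reporter in P. falciparum. Infected erythrocytes at 2% hematocrit, 0.05% parasitemia final were treated 96 hours at 37 C under 5% CO2, and luminescence was read.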
# Potency is the fitted concentration of half-maximal effect.
row,SMILES,Potency
1,CC1=C(C(=O)OCc2ccccc2)C(c2ccccc2Cl)NC(=O)N1C (stereo not drawn),"inconclusive: 3.7 µM [inhibitor, partial curve, poor fit]"
2,CCCCn1c(N)c(N(CC(C)C)C(=O)c2cccc(S(=O)(=O)N3CCCCC3)c2)c(=O)[nH]c1=O,"inconclusive: 18.5 µM [inhibitor, single point]"
3,COc1cccc(C2CC(=O)Nc3c2c(=O)[nH]c2ncnn32)c1 (stereo not drawn),"inconclusive: 0.828 µM [inhibitor, full curve, poor fit]"
4,CCOc1ccc(C(=O)NCC(=O)NCC2CCCCC2)cc1OCC,inactive
5,CCCNC(=O)COc1ccc2c(=O)c(Oc3ccccc3F)coc2c1,"inconclusive: 14.7 µM [inhibitor, partial curve, poor fit]"
6,CCCn1c(SCC(=O)NCC2CCCO2)nc2c1c(=O)n(C)c(=O)n2C (stereo not drawn),"inconclusive: 11.7 µM [inhibitor, partial curve, poor fit]"
7,Cc1cccn2c(=O)c3cc(C(=O)NC4CCCC4)c(=N)n(CCCN4CCOCC4)c3nc12,inactive
8,Cc1nc(NC(=O)CN2CCN(c3cccc(Cl)c3)CC2)sc1C(=O)N(C)C,"inconclusive: 18.5 µM [inhibitor, single point]"
9,O=c1oc2ccccc2nc1/C=C(O)/C=C/c1ccc(F)cc1,"inconclusive: 18.5 µM [inhibitor, single point]"
10,O=C(NCCN1C(=O)C2C3C=CC(C3)C2C1=O)Nc1ccccc1 (stereo not drawn),"inconclusive: 14.7 µM [inhibitor, partial curve, poor fit]"
11,CC1CN(c2ccc([N+](=O)[O-])c3cccnc23)CC(C)N1 (stereo not drawn),"inconclusive: 18.5 µM [inhibitor, single point]"
12,COC(=O)c1ccc(NC(=O)c2c(C(=O)Nc3ccccc3)sc3nc(C)cc(=O)n23)cc1,active: 11.7 µM
13,COc1cccc(C2c3[nH]c4ccccc4c3C[C@H]3C(=O)N(c4ccccc4C(=O)NCCCN4CCOCC4)C(=O)N23)c1 (stereo partly drawn),active: 11.7 µM
14,COc1cccc(N2C(=O)/C(=C/c3ccc(C)o3)C(=O)NC2=S)c1,"inconclusive: 18.5 µM [inhibitor, single point]"
15,O=C(c1ccc(S(=O)(=O)c2cccc(Cl)c2)c([N+](=O)[O-])c1)N1CCN(Cc2ccccc2)CC1,"inconclusive: 13.1 µM [inhibitor, single point]"
16,CCCC(C)NC(=O)COC(=O)c1cccc(NS(C)(=O)=O)c1 (stereo not drawn),inactive
17,Brc1ccc(C2=Nn3cnnc3SC2)cc1,"inconclusive: 4.15 µM [inhibitor, single point]"
18,CCc1ccc(-c2csc(NC(=O)Oc3ccccc3)n2)cc1,active: 11.7 µM
19,N#C/C(=C\c1cccnc1)c1nc2c(s1)CCCC2,inactive
20,CC(=NC1CCN(Cc2ccccc2)CC1)c1c(O)[nH]c(=O)[nH]c1=O,"inconclusive: 2.94 µM [inhibitor, full curve, poor fit]"
21,Cn1c(=O)n(C)c2cc(NC(=O)CCl)ccc21,"inconclusive: 0.037 µM [inhibitor, full curve, poor fit]"
22,CCCN1CCC(=O)N([C@H](CN=[N+]=[N-])Cc2ccccc2)CC1,"inconclusive: 18.5 µM [inhibitor, single point]"

row,SMILES,Potency
1,Cc1ccc(S(=O)(=O)N2CCCCC2C(=O)NCc2ccco2)cc1 (stereo not drawn),active: 5.22 µM
2,CC(=O)NC(CCS(C)(=O)=O)C(=O)Nc1c(F)cccc1F (stereo not drawn),"inconclusive: 18.5 µM [inhibitor, single point]"
3,O=C(CNC(=O)c1ccc(Br)o1)Nc1ccncc1,inactive
4,CC(NC(=O)C(NS(=O)(=O)c1cccc2nsnc12)C(C)C)c1ccccc1 (stereo not drawn),"inconclusive: 6.57 µM [inhibitor, single point]"
5,CCN(C(=O)CN1C(=O)COc2ccc(S(=O)(=O)N3CCCCCC3)cc21)c1cccc(C)c1,"inconclusive: 10.4 µM [inhibitor, single point]"
6,COC(CNC(=O)c1ccc2c(c1)ncn2-c1cccc(F)c1)OC,"inconclusive: 11.7 µM [inhibitor, single point]"
7,Cc1ccc(NC(=O)CCC(=O)NNC(=O)C(C)(C)C)c(C)c1,"inconclusive: 13.1 µM [inhibitor, single point]"
8,CCC(c1nnnn1Cc1ccc2c(c1)OCO2)N1CCN(c2ccccc2)CC1 (stereo not drawn),inactive
9,Cc1ncsc1CCC(=O)N1CCCC(Nc2ccc(F)c(F)c2)C1 (stereo not drawn),active: 11.7 µM
10,COc1ccc(O)cc1,"inconclusive: 4.78 µM [inhibitor, partial curve]"
11,COC(=O)c1sc2nc(C)nc(SCC(=O)N3CCC(C(=O)O)CC3)c2c1C,inactive
12,O=C(CSc1ncn[nH]1)Nc1ccc(S(=O)(=O)N2CCCC2)cc1,"inconclusive: 0.0041 µM [inhibitor, full curve, poor fit]"
13,Cc1c(NCc2cccnc2)cccc1C(=O)O,"inconclusive: 10.4 µM [inhibitor, single point]"
14,COc1ccc(OC)c(NC(=O)CSc2nnc3ccc(-c4ccccn4)nn23)c1,inactive
15,CCOc1ccccc1C1C(C#N)=C(N)Oc2cc(N)ccc21 (stereo not drawn),"inconclusive: 18.5 µM [inhibitor, single point]"
16,CCCCCCCCCCCCCCCCCCCCCCO,inactive
17,NCCc1cnc[nH]1,"inactive and inconclusive: 19 µM [inhibitor, single point]"
18,CC(=O)N1c2ccccc2NC2=C(C(=O)CC(C)(C)C2)C1c1cccn1C (stereo not drawn),"inconclusive: 9.28 µM [inhibitor, partial curve, poor fit]"
19,COc1ccc(NC(=O)c2cc3c(s2)CCC3)cc1S(=O)(=O)N1CCOCC1,"inconclusive: 18.5 µM [inhibitor, single point]"
20,COc1ccc(CCn2c(=N)c(C(=O)NCC3CCCO3)cc3c(=O)n4ccccc4nc32)cc1 (stereo not drawn),active: 4.65 µM
21,O=C1N(C2CCCC2)C[C@@H]2C[C@@H](c3cn[nH]c3-c3ccc(Cl)cc3)N3CCC[C@@]123,"inconclusive: 0.465 µM [inhibitor, partial curve, poor fit]"

# Some of the entries so far, with tabs:
row	SMILES	Potency
7	Cc1ccc(NC(=O)CCC(=O)NNC(=O)C(C)(C)C)c(C)c1	inconclusive: 13.1 µM [inhibitor, single point]
11	COC(=O)c1sc2nc(C)nc(SCC(=O)N3CCC(C(=O)O)CC3)c2c1C	inactive
